These are yes or no findings as the source states them, for the method shown. Binding seen in cells or lysates may run through a third protein. Some entries that bind do so weakly or less than the wild type. Sequences can lack the tags named with a protein.
Molecular target: T1, N-terminal GST-tagged HMGS with 1 C-terminal SH3 peptide ligand (Saccharomyces cerevisiae) (UniProt P54839)
T1 sequence: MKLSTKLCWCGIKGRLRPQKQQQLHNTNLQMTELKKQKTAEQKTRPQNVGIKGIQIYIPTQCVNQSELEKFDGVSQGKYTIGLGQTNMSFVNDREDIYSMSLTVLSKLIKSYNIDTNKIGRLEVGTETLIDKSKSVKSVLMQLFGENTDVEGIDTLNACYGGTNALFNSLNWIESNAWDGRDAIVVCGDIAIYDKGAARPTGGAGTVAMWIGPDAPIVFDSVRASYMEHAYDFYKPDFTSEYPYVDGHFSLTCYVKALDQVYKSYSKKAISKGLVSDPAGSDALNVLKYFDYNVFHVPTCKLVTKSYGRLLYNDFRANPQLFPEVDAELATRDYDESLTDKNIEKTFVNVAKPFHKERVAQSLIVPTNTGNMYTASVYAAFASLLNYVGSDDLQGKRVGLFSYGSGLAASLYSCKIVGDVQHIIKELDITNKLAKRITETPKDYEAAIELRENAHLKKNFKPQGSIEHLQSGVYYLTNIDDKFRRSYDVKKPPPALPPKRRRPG
Experiment: GST pull-down, GST-HMGS as bait

Protein sequences, listed by entry. Tags and fused reporters are not part of them. Lines headed by an entry give the natural chain unless they say otherwise; changes in a name come on top.
UniProt Q64010: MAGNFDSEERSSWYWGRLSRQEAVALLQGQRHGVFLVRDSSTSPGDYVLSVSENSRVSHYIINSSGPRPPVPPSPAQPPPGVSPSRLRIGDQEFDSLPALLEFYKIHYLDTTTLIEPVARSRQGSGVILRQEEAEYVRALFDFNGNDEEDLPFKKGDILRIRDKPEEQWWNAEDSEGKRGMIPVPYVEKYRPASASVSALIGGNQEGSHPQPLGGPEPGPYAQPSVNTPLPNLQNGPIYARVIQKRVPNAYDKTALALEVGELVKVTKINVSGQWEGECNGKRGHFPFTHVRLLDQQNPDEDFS

HMGR with an N-terminal SH3 domain (from UniProt Q64010 134-191; P12683 554-1054) (enzyme)
binding: binds

From patent US20110008829A1
